About 7,500 (2.1%) of roughly 360,000 compounds were called active. Inconclusive means that the source gave no clear call. Such entries were picked first, then a sample of the others. Calls follow the shape of the dose curve; as a rule, active = well fitted inhibition curve with a large enough effect; inconclusive = small, poorly fitted or top-dose-only effect, or effect the other way; inactive = flat fitted curve, though single readings scatter. A potency beside an inconclusive call is a rough fit, not a confirmed value.
experiment: Nrf2 qHTS screen for inhibitors; conditions: A549 ARE-Fluc reporter, luciferase luminescence, 18-24 h; activity change, negative = inhibition: at 46 µM (top of the series); also: nearly all actives have a fitted effect of over 60% in size
Outline: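 A549 ARE_Fluc cells (5000/well, 5% FBS OPTI-MEM) pre-incubated 2 h, then treated with compounds 18-24 h at 37C/5% CO2 in concentration-response. CellTiter-Fluor viability read first; BugLite luciferase luminescence after 15 min at room temperature gives Nrf2 activity.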
% is scaled to controls: 0 for no effect and ±100 for the full control effect; potency is read from the fitted curve at half-maximal effect.

| Structure (SMILES) | Potency | activity change, negative = inhibition |
| --- | --- | --- |
| COc1ccc(CC(=O)Nc2nnc(C(C)C)s2)cc1OC | inconclusive: 10.3 µM [falling, partial curve, poor fit] | – |
| CCOC(=O)N1CCc2c(sc3c2c(=O)n(-c2ccc(CC)cc2)c(=O)n3CC(=O)NCC2CCCO2)C1 (stereo unspecified) | – | inactive: 7.15% |
| O=C(C/C(=N/O)c1ccccc1O)C(F)F | inconclusive: 4.61 µM [activator, full curve, poor fit] | – |
| Cc1ccc(NC(=O)c2cc3ccccc3o2)cc1Cl | inconclusive: 8.2 µM [activator, partial curve] | – |
| Cc1cc(F)ccc1S(=O)(=O)N1CCCOC1CNC(=O)C(=O)NCCc1c[nH]c2ccccc12 (stereo unspecified) | inconclusive: 29.1 µM [falling, single point] | – |
| CCCC[n+]1c(-c2ccc(Cl)cc2Cl)csc1Nc1ccccc1 | inconclusive: 29.1 µM [activator, single point] | – |
| Cc1ccc(NC(=O)c2ccccc2)cc1 | inconclusive: 9.2 µM [activator, partial curve] | – |
| O=S(=O)(c1ccccc1)N1CCC(O)(CSc2ccc(Cl)cc2)CC1 | active: 9.2 µM | – |
| CCOC(=O)c1ccc(NS(=O)(=O)c2c(C)nc3sccn3c2=O)cc1 | inconclusive: 20.6 µM [falling, single point] | – |
| Cc1ccc(SCc2[nH]nc3c2C2(CCSCC2)C(C#N)=C(N)O3)cc1 | – | inactive: -19.7% |
| COc1ccc(C(=O)Nc2ccc(N3CCOCC3)cc2)cc1S(=O)(=O)N1CCOCC1 | – | inactive: -4.43% |
| CCS(=O)(=O)N1Cc2ccccc2CC1C(=O)NCCc1ccccc1 (stereo unspecified) | – | inactive: 12.1% |
| Cc1ccc2oc(C(=O)Nc3nnc(C)s3)c(C)c2c1 | inconclusive: 2.59 µM [activator, partial curve, poor fit] | – |
| CN(C)c1ccc(CN(Cc2ccco2)C(=O)COc2ccc(F)cc2)cc1 | inconclusive: 18.4 µM [falling, single point] | – |
| Nc1nc2nc(-c3ccc(OCc4ccccc4)cc3)cc(C(F)(F)F)n2n1 | – | inactive: -3.2% |
| NS(=O)(=O)c1ccc(NC(=O)C(Sc2ccccc2)c2ccccc2)cc1 (stereo unspecified) | inconclusive: 4.11 µM [falling, full curve] | – |
| Cc1nn(C)c(C)c1CN(C)S(=O)(=O)c1ccc2ccccc2c1 | active: 2.51 µM | – |
| Cc1ccc(NC(=O)N2CC3CCCN3c3ccccc32)cc1C (stereo unspecified) | inconclusive: 7.31 µM [falling, partial curve] | – |
| Cc1cc2c(s1)c1cnn(Cc3ccccc3Br)c(=O)c1n2C | – | inactive: 5.41% |
| COc1ccc(/C=N/Nc2nncc3ccccc23)cc1 | inconclusive: 6.51 µM [activator, partial curve] | – |
| COC(=O)CCS(=O)(=O)c1nc(-c2ccccc2)cc(C(F)(F)F)n1 | inconclusive: 25.9 µM [falling, single point] | – |
| COc1cc(CC(=O)N(C)CC(=O)Nc2ccc(Cl)c(C(F)(F)F)c2)cc(OC)c1OC | inconclusive: 29.1 µM [falling, single point] | – |
| O=C(CNC(=O)c1ccc(Cl)cc1)OCc1nc2ccccc2s1 | inconclusive: 10.3 µM [activator, partial curve] | – |

Record cards (already shown).
O=C(C/C(=N/O)c1ccccc1O)C(F)F is listed with Potency: inconclusive: 4.61 µM [activator, full curve, poor fit]
O=C(CNC(=O)c1ccc(Cl)cc1)OCc1nc2ccccc2s1 is listed with Potency: inconclusive: 10.3 µM [activator, partial curve]

(next part)

| Structure (SMILES) | Potency | activity change, negative = inhibition |
| --- | --- | --- |
| NC(=O)C1CC(=O)N(c2ccc(OCc3ccc(F)cc3)cc2)C1 (stereo unspecified) | inconclusive: 2.31 µM [activator, full curve] | – |
| COc1ccccc1NS(=O)(=O)c1ccc2oc(SCC(C)=O)nc2c1 | inconclusive: 6.51 µM [falling, partial curve] | – |
| Cc1ccc(C2=NN(S(=O)(=O)c3ccccc3)C(c3ccco3)C2)cc1 (stereo unspecified) | inconclusive: 29.1 µM [falling, single point] | – |
| CN1c2ccccc2C(=O)/C(=C\Nc2ncccn2)S1(=O)=O | inconclusive: 29.1 µM [activator, single point] | – |
| Cc1ccc(S(=O)(=O)NCC(=O)N/N=C/c2ccc(Cl)cc2Cl)cc1 | – | inactive: 5.48% |
| O=C(Nc1nc(-c2ccccn2)cs1)c1ccccc1-n1cnnn1 | active: 5.8 µM | – |
| CSC(=S)NN=C(C)c1cccc(C)n1 | active: 4.11 µM | – |
| CC(O)CNc1nc2c(c(=O)n(C)c(=O)n2C)n1Cc1cccc(Br)c1 (stereo unspecified) | active: 16.4 µM | – |
| CCCCNC(=S)Nc1ccc(F)cc1 | inconclusive: 25.9 µM [falling, single point] | – |
| COc1cc(C(=O)Nc2ccc(C(=O)c3cccs3)cc2)cc(OC)c1OC | active: 20.6 µM | – |
| CCCN(CCC)CCNC(=O)C1CCN(Cc2nc(-c3ccc(Cl)cc3)oc2C)CC1 | – | inactive: 6.91% |
| CCOc1ccc(N=NC2C(=O)N(C(N)=S)N=C2C)cc1 (stereo unspecified) | inconclusive: 1.84 µM [activator, full curve] | – |
| c1ccc(-c2cnc(CSc3nnc4ccccn34)o2)cc1 | inconclusive: 0.731 µM [activator, full curve, poor fit] | – |
| Cc1ccc(S(=O)(=O)Cc2ccc(C(=O)NCCCN3CCN(C)CC3)o2)cc1 | – | inactive: 4.83% |
| CCN(CC)CCNC(=O)c1ccc(NC(=O)c2cccc(S(=O)(=O)Nc3ccc(C)cc3)c2)cc1 | inconclusive: 2.91 µM [falling, full curve] | – |
| COc1ccccc1N=C1NC(=O)/C(=C/c2ccc(N(C)C)cc2)S1 | inconclusive: 5.17 µM [activator, full curve] | – |
| COC(=O)c1c(C)[nH]c(C(=O)C(C)OC(=O)C2=NNC(=O)CC2)c1C (stereo unspecified) | – | inactive: 2.19% |
| CCc1cc(=O)n2[nH]c(C)c(-c3ccccc3OC)c2n1 | inconclusive: 4.61 µM [falling, full curve, poor fit] | – |
| CC(=O)Oc1ccc(C(=O)Nc2ccc(S(=O)(=O)NCC3CCCO3)cc2)cc1 (stereo unspecified) | inconclusive: 29.1 µM [falling, single point] | – |
| CN(C)S(=O)(=O)c1cccc(C(=O)NC(=S)N(CCC#N)Cc2cccnc2)c1 | inconclusive: 29.1 µM [falling, single point] | – |
| N#Cc1c[nH]n2c(NC3CCCC3)c(-c3cccc(Br)c3)nc12 | inconclusive: 29.1 µM [falling, single point] | – |
| CC(=O)c1ccc(OCC(O)CN2CCN(S(=O)(=O)c3c(C)c(C)cc(C)c3C)CC2)cc1 (stereo unspecified) | active: 25.9 µM | – |
| Cc1nc(/N=C(\N)NC(=O)c2ccccc2)nc2ccccc12 | inconclusive: 4.11 µM [activator, full curve] | – |

From PubChem BioAssay AID504444 (National Center for Advancing Translational Sciences (NCATS), 2011)
